According to publication PMC8906905:
These are yes or no findings as the source states them, for the method shown. Binding seen in cells or lysates may run through a third protein. Some binding calls cover weakened binding; strength is not graded here. Where a sequence is shown, tags or fusion partners need not be part of it.

Chains of the proteins cited; added tags and fusions are not shown. Lines headed by an entry give the natural chain unless they say otherwise; changes in a name come on top.
UniProt P05556: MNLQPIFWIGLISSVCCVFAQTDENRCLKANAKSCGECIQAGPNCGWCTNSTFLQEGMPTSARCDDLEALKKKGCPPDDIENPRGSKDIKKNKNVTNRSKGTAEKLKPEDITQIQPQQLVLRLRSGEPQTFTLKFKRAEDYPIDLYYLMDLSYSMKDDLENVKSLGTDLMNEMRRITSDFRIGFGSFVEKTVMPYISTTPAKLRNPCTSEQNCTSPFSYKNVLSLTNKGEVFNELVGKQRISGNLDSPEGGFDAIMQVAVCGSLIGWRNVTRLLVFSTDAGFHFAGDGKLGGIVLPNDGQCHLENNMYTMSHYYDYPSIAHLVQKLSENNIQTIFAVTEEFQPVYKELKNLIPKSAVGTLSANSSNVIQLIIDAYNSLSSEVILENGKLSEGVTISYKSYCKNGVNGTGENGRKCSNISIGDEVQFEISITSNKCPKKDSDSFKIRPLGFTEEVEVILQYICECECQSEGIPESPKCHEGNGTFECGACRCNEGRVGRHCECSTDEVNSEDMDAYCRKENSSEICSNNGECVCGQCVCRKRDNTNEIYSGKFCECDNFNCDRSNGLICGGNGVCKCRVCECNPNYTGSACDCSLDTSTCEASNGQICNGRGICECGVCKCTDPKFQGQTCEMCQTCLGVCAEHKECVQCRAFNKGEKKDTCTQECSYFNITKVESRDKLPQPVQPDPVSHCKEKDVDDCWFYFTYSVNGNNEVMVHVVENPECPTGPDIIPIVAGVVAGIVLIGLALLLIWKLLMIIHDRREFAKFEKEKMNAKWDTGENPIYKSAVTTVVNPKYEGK

Target: T1, FLAG-tagged Tspan9 (tetraspanin-9), stably expressed in U2OS cells (human) (UniProt O75954)
T1 sequence: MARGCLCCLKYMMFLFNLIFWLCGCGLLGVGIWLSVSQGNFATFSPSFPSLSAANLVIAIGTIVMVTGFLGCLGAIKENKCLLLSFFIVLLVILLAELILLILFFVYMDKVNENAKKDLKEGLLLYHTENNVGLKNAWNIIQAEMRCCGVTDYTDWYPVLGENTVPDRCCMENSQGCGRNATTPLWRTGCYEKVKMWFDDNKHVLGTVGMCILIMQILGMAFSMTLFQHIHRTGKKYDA
Test: co-IP; RIPA lysates of U2OS cells expressing FLAG-tagged Tspan9 or control constructs, anti-Flag M2 agarose beads, 4°C for 2 h, washed three times with PBS, Western blotting

- binding: binds
Substance: integrin β1, endogenous in U2OS cells (from UniProt P05556 21-798) (receptor)
